The results in this text go back to patent US20220054630A1.

No constants are given. Whether binding was seen depends on the method and setting. Some results given as binding are weak or reduced against the parent protein; the word gives no strength.

The target of test [1] is sE2 pairwise combination of designs H445P and Y632NS (Hepatitis C virus isolate H77C) (UniProt P27958). Briefly: BLI (Octet RED96), His6-tagged sE2 on Ni-NTA biosensors, CD81-LEL in solution.
Test [2] addresses sE2 pairwise combination of designs ΔHVR1 and H445P (Hepatitis C virus isolate H77C) (UniProt P27958). The description is as above.

B1: CD81 large extracellular loop (LEL) (receptor)
chain: FVNKDQIAKDVKQFYDQALQQAVVDDDANNAKAVVKTFHETLDCCGSSTLTALTTSVLKNNLCPSGSNIISNLFKEDCHQKIDDLFSGK
For the molecule B1, the binding entry in test [1] and in test [2] was “binds” in each case.
